The text below walks through data of paper doi:10.1101/586834.

Protein sequences, listed by entry. Tags and fused reporters are not part of them. Lines headed by an entry give the natural chain unless they say otherwise; changes in a name come on top.
UniProt Q9TZB2: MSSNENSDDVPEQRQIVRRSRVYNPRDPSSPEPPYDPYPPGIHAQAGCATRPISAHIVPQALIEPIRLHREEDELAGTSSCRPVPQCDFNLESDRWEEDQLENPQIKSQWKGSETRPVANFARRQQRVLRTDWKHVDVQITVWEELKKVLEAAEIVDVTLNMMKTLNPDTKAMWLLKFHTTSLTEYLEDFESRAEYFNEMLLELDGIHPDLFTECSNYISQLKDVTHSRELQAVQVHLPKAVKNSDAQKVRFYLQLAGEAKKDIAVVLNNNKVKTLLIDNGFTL
UniProt Q3V5H4: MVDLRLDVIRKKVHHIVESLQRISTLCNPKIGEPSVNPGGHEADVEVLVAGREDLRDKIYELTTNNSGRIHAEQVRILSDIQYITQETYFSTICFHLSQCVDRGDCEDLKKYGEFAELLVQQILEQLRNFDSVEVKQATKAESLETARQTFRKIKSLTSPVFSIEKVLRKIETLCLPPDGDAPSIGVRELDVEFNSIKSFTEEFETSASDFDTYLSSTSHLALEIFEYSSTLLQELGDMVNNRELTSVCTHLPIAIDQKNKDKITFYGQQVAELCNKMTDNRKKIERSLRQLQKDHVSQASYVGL

Like-named read-outs stand apart in the source and are kept apart here. Results are given in words; binding and its absence hold for the method and conditions named. Binding seen in cells or lysates may run through a third protein. A yes stands for co-enrichment or nearness to the bait. Other partners may have been found. For some of these results: Tags and fused reporters may be left off the sequences shown.

Common to all, as to assay: affinity purification with mass spectrometry
Assay [1] addresses T1, CUL-6::GFP::3xFLAG (C. elegans) (UniProt Q21346).
T1 sequence: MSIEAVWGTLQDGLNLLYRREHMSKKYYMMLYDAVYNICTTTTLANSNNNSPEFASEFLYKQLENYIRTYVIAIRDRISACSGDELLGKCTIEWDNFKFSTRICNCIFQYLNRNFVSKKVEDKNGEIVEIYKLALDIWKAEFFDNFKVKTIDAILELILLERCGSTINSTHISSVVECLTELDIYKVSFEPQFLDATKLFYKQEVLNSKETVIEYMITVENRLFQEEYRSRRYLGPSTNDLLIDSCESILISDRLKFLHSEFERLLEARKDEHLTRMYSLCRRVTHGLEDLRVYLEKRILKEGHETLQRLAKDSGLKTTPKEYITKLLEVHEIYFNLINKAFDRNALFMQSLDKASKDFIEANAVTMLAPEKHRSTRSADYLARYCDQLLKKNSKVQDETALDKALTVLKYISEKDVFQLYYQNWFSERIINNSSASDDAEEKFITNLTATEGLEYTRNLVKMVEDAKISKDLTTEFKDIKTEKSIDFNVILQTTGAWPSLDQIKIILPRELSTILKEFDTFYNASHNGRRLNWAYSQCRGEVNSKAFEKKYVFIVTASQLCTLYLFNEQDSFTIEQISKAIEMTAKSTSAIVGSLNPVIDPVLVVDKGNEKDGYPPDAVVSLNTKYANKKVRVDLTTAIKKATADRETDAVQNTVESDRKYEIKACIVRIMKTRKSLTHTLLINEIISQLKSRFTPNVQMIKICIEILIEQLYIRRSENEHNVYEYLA

Assay [2] deals with PALS-22::GFP::3xFLAG (C. elegans) (UniProt Q9TZB2).
In assay [3] the target is T1, CUL-6::GFP::3xFLAG (C. elegans). This is another data set of the same source.

With “F-box protein FBXA-158 (C. elegans (endogenous in whole animals))”, in assay [1], the binding result is reported as “binds”. FBXA-75 (from UniProt Q966E2): the binding entry in assay [1] was “binds”. Take PALS-25 (from UniProt Q3V5H4): in assay [2], the binding entry is recorded as “binds”. Regarding RPN-5 (from UniProt Q19324), the binding entry in assay [1] was “binds”. Still for that read-out and setting: in the case of RPN-9 (from UniProt Q22253) it was “binds”. Consider “Skp-related protein SKR-3 (from UniProt G5EE67)”, for which the binding entry in assay [1] is given as “binds”.

B1: RPN-6.1 (protein, UniProt Q20938 1-438)
chain: MRETSSREDTNNIGKAPEMSGGTIMDTMTSLPHQNDQNVIRHLTNLVKSPASGDDDIKKKEDSIMELGNILAQNKQTEELRNMIEQTRPFLVSLGKAKAAKLVRDLVDLCLKIDDQDGDIKVGLVKECIQWATEQNRTFLRQTLTARLVRLYNDLQRYTQALPLAADLIRELKKVDDKDVLVEVELEESKAYYNLSNIGRARASLTGARTTANAIYVNPRMQAALDLQSGILHAADEKDFKTAFSYFYEAFEGYDSVDEKVSALTALKYMLLCKVMLDLPDEVNSLLSAKLALKYNGSDLDAMKAIAAAAQKRSLKDFQVAFGSFPQELQMDPVVRKHFHSLSERMLEKDLCRIIEPYSFVQIEHVAQQIGIDRSKVEKKLSQMILDQKLSGSLDQGEGMLIVFEIAVPDEAYQTALDTIHAMGEVVDALYSNASKIN
On to B1, for which the binding result in assay [3] is on record as “binds”.

B2: RPN-8 (protein, UniProt O61792 1-362)
chain: MAPTNKDGDVATVKAVDVLKQKAGAHHCLGNVHANLPVNKVTVHPLVLLSVVDHFNRVSKTQSVKRVVGVLLGSMKKDKTLDIGNSFAVPFDEDDKDKSTWFLDMDYLESMYGMFYKVAAKEKIVGWYHTGPKLHKNDIAINEQLKRFCPNPVLVIIDAEPKNIGLPTEAYIEVQEVHDDGTPPIKTFEHVPSDIGAEEAEEVGVEHLLRDIKDQTAGTLSQRITDQLMGLRGLQSQLESIEKYLHDIVRGTLPVNHHVIYYVQEVLNLLPDVTHPDYIVSQNVQTNDQLMCVYMGSLVRSVVALHNLIDNKISLQKAEKEQETGEAEKKKDEKDKKDKKDEKKDEKKEKDSKSSTPNTPKK
On to B2, for which the binding result in assay [3] is listed as “binds”.

B3: RPT-3 (protein, UniProt P46502 1-414)
chain: MSAAALEEIGIAPLQENTSLRPPPLPATCVDVSSDDYIKLTTLERQLAHLQVMEDYIKLETRNLEKELLHAQEEVKRIQSVPLVIGQFLEAVDQNHAIVGSTTGSNYYVRVLSILDRELLKPGCSVALHKYSNALVDVLPPEADSSIQMLRPDEKPDISYGDIGGLDMQKQEVREAVELPLTHGELYQQIGIDPPRGVLMYGPPGCGKTMLAKAVAANTAASFIRVVGSEFVQKYLGEGPRMVRDVFRLAKENSPSIIFIDEIDAIATKRFDAQTGADREVQRILLELLNQMDGFDQSTNVKVIMATNRQDTLDPALLRPGRLDRKIEFPLPDRRQKRLVFSTVCSRMNLSDDVDLEDWVARPDKISGADINSICQEAGMQAVRENRYVVLTKDLEKAYKNVVKKDTNDFEFYK
For the molecule B3, the binding result in assay [3] was “binds”.

B4: RPT-4 (protein, UniProt O17071 1-406)
chain: MLLLQFSNMVEPTGPAIVEDERTKALNSYRRKLAECRDIEQKLKDLRKKESEMTKQFDKSENDIKSLQSVGQIVGEVLKQLSEEKFIVKATNGPRYVVGCRRSINKEELKQGTRVSLDMTTLTIMRQLPREVDPLVYKMSHEDPGNISYSDVGGLAEQIRELREVVELPLINPELFKRVGITPPKGCLLFGPPGTGKTLLARAVASQLDCNFLKVVSSAIVDKYIGESARMIREMFNYARDHQPCIVFMDEIDAIGGRRFSEGTSADREIQRTLMELLNQLDGFDSLGKVKVIMATNRPDTLDPALLRPGRLDRKIEIGLPNEQSRLEILKIHSNKITKHGEIDFEAVVKLSDGFSAADLRNVCTEAGMFAIRAEREFVIDEDFMKAVRKVGDAKRLETKLDYKPV
For the molecule B4, the binding entry in assay [3] is recorded as “binds”.
